Measurements reported in PubChem BioAssay AID1508597 (Cure First, 2020)

Test: 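Genes whose silencing sensitises or protects ovarian cancer cells against rucaparib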 (primary screen)
System: human ovarian carcinoma lines grown from tumours: OCI-P5x (papillary serous) and OCI-C5x (clear cell)
Knock-down reagent: siRNA pool against human genes, 1.25 pmol siRNA per well
Duration: 72 h or 96 h, depending on the cell culture
Conditions: rucaparib 20 µM (about IC30) or vehicle, present until read-out
Rucaparib or vehicle: Rucaparib
Cell line: OCI-C5x (clear cell)
Measurement: 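Luminescent ATP-based viability assay read 72 or 96 h after transfection, depending on culture, given as normalised percent viability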
Direction: viability, normalised: higher = more viable cells remaining
Call rule: 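a well counts as a hit if its normalised viability is under 80 percent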
Meaning of the calls: active = viability under 80%; inactive = viability 80% or more
This is an unselected part of the about 2,100 reagents, in one setting of the screen. 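Calls flag viability under 80% in either arm, not effects specific to rucaparib; the reference for percent is not stated.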 Unmarked entries are inactive. Not stated in the record: the 100% reference.

Target gene	PubChem SID	technical replicate	viability, normalised (%)
PHF1 (PHD finger protein 1)	SID405527138	1	56.9 (active)
PHF1 (PHD finger protein 1)	SID405527138	2	35.2 (active)
PHF1 (PHD finger protein 1)	SID405527138	3	39.5 (active)
MAPK1 (mitogen-activated protein kinase 1)	SID405527479	1	49.8 (active)
MAPK1 (mitogen-activated protein kinase 1)	SID405527479	2	51.9 (active)
MAPK1 (mitogen-activated protein kinase 1)	SID405527479	3	45.2 (active)
GLI3 (GLI family zinc finger 3)	SID405526817	1	46.2 (active)
GLI3 (GLI family zinc finger 3)	SID405526817	2	62.3 (active)
GLI3 (GLI family zinc finger 3)	SID405526817	3	59.4 (active)
PIK3CB	SID405527634	1	51.2 (active)
PIK3CB	SID405527634	2	43.8 (active)
PIK3CB	SID405527634	3	64.7 (active)

The list goes on (2 carried over from the part before).
Target gene	PubChem SID	technical replicate	viability, normalised (%)
PIK3CB	SID405527634	2	43.8 (active)
PIK3CB	SID405527634	3	64.7 (active)
PLCD1 (phospholipase C delta 1)	SID405526709	1	56.1 (active)
PLCD1 (phospholipase C delta 1)	SID405526709	2	48.1 (active)
PLCD1 (phospholipase C delta 1)	SID405526709	3	37.5 (active)
HIPK2 (homeodomain interacting protein kinase 2)	SID405527825	1	72 (active)
HIPK2 (homeodomain interacting protein kinase 2)	SID405527825	2	82.5
HIPK2 (homeodomain interacting protein kinase 2)	SID405527825	3	65.4 (active)
DMBT1 (deleted in malignant brain tumors 1)	SID405528228	1	32.1 (active)
DMBT1 (deleted in malignant brain tumors 1)	SID405528228	2	44.2 (active)
DMBT1 (deleted in malignant brain tumors 1)	SID405528228	3	30.7 (active)
PLCE1 (phospholipase C epsilon 1)	SID405526712	1	67.7 (active)
PLCE1 (phospholipase C epsilon 1)	SID405526712	2	66.2 (active)
PLCE1 (phospholipase C epsilon 1)	SID405526712	3	54.3 (active)
